PMC6602300
These are yes or no findings as the source states them, for the method shown. In cells and extracts the contact can be indirect. Some binding calls cover weakened binding; strength is not graded here. Tags and fused reporters may be left off the sequences shown. Blank lines part the entries; values can stand above or below the molecule they belong to.

Sequences of proteins named here, by UniProt entry; tags and fusion partners are left off.
UniProt O00425: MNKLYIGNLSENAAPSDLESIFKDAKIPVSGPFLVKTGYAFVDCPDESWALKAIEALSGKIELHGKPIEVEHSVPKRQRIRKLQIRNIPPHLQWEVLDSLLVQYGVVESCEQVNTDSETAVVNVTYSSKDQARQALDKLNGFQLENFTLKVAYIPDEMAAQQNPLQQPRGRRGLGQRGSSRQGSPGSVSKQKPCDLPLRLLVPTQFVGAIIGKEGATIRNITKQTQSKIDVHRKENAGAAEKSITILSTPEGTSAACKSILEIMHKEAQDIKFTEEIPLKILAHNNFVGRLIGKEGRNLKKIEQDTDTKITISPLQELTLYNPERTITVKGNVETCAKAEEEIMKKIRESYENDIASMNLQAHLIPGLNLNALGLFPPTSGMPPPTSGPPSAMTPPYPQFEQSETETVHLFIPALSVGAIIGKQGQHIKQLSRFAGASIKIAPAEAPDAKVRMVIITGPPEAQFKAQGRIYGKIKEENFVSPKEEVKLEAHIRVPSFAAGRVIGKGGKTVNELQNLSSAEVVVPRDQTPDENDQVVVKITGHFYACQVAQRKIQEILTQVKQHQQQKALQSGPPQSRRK

Target: T1, Tagged OTUD4 expressed in HEK293T cells (human) (UniProt Q01804)
T1 sequence: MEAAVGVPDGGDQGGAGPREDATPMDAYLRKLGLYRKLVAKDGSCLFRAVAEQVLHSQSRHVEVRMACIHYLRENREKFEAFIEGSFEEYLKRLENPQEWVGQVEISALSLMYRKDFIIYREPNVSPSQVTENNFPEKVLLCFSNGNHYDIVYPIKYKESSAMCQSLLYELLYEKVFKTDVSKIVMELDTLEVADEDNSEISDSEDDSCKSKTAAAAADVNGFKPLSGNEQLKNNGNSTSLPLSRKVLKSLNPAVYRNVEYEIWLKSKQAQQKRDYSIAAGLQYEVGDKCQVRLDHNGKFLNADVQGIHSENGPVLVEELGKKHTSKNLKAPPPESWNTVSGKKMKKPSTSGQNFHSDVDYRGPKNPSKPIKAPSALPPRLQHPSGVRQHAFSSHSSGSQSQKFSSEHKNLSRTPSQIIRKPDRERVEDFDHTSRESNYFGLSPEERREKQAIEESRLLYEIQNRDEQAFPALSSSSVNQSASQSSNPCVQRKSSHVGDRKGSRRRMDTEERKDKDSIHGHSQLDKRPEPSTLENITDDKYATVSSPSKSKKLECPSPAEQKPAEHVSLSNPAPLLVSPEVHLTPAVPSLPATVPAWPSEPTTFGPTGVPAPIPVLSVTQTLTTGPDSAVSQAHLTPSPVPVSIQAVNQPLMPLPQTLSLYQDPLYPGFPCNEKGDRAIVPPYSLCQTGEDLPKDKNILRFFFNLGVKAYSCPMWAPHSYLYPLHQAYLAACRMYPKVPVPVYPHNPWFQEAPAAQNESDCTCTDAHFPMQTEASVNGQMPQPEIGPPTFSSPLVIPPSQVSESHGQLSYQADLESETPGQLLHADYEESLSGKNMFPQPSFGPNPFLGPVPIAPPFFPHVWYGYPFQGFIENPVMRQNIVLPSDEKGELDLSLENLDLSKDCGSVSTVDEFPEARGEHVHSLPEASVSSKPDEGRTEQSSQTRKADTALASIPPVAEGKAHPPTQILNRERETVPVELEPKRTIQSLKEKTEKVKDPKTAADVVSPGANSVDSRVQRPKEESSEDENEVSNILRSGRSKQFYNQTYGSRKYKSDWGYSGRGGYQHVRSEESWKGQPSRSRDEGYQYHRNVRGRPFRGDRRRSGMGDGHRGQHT
Assay: co-IP; HEK293T cells transfected as indicated; tagged OTUD4 precipitated (anti-HA agarose, anti-FLAG M2 or GFP-Trap beads as indicated); lysate incubated at 37°C for 15 min without RNase A (IGF2BP3 and TIAR also with 50 µg/ml RNase A, interaction enhanced); washes 10 mM Tris-HCl pH 7.5, 150 mM NaCl, 0.1% Triton X-100, 5% glycerol; western blot

binding: binds
Molecule: Myc–IGF2BP3 (insulin-like growth factor 2 mRNA-binding protein 3) (from UniProt O00425 1-579)

binding: binds
B1: Endogenous TIA1-related protein (TIAR) of HEK293T cells (protein, UniProt Q01085 1-375)
chain: MMEDDGQPRTLYVGNLSRDVTEVLILQLFSQIGPCKSCKMITEHTSNDPYCFVEFYEHRDAAAALAAMNGRKILGKEVKVNWATTPSSQKKDTSNHFHVFVGDLSPEITTEDIKSAFAPFGKISDARVVKDMATGKSKGYGFVSFYNKLDAENAIVHMGGQWLGGRQIRTNWATRKPPAPKSTQENNTKQLRFEDVVNQSSPKNCTVYCGGIASGLTDQLMRQTFSPFGQIMEIRVFPEKGYSFVRFSTHESAAHAIVSVNGTTIEGHVVKCYWGKESPDMTKNFQQVDYSQWGQWSQVYGNPQQYGQYMANGWQVPPYGVYGQPWNQQGFGVDQSPSAAWMGGFGAQPPQGQAPPPVIPPPNQAGYGMASYQTQ
